Test results from PMC3494694.
No constants are given. Whether binding was seen depends on the method and setting. In cells and extracts the contact can be indirect. Binding calls can cover weak binding; strength is not graded here.

Amino acid sequences for entries named in this document (tags omitted). A change or cut given only in a name is not applied to a line headed by its entry.
UniProt C0KWE9: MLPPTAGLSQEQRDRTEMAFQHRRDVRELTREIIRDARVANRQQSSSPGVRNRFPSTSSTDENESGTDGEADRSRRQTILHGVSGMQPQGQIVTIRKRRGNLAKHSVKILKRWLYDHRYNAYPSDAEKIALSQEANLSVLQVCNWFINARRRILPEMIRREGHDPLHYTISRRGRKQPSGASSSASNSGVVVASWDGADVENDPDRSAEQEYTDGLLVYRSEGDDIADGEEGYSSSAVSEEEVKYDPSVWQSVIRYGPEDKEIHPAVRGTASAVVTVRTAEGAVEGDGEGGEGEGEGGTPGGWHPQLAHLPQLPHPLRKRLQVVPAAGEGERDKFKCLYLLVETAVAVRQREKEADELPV
UniProt D0V0M8: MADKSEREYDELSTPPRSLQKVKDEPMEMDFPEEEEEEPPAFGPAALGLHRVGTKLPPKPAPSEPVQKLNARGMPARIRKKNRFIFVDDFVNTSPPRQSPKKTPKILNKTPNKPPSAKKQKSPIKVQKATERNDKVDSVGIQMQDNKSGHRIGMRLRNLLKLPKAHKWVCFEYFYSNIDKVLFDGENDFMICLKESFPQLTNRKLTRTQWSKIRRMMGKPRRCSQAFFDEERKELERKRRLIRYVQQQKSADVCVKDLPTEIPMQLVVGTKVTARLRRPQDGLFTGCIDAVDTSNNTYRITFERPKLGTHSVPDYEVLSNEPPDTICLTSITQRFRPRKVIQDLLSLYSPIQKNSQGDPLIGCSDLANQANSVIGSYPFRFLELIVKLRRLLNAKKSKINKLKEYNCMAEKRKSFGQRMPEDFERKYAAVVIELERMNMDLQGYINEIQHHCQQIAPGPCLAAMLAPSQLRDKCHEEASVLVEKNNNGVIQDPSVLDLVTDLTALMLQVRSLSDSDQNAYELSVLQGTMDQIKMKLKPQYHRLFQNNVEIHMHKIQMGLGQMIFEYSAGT

Experiments:
[1] = target: BmTGIF-L (Bombyx mori (endogenous in testes)) (UniProt C0KWE9); test: co-IP; extracts of about 30 B. mori testes in RIPA buffer (50 mM Tris pH 7.5, 150 mM NaCl, 20 mM MgCl2, 0.5% NP40), precleared with pre-immune antiserum; IP with BmTGIF antibody (1:100) at 4°C overnight, protein G Plus/Protein A agarose, blot with anti-BmAly; and the reverse (IP with BmAly antibody, blot with BmTGIF antibody); control: pre-immune antiserum
[2] = target: BmAly (Bombyx mori (endogenous in testes)) (UniProt D0V0M8); test: as above

| Substance | binding [1] | binding [2] |
| --- | --- | --- |
| BmAly (from UniProt D0V0M8) | binds | – |
| BmTGIF-L (from UniProt C0KWE9) | – | binds |
